PubChem BioAssay AID1259308 – NCATS – 2017

Test: 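Candidate targets for better recombinant protein yield in mammalian cells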 (primary screen)
Cells: human HEK293 embryonic kidney cells stably expressing firefly luciferase (HEK-CMV-Luc2-Hygro)
Reagents: single siRNA against human genes, 0.8 pmol siRNA per well
Time to read-out: 72 h
Measurement: 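Reporter luminescence and viable-cell signal on separate replicate plates, given as percent of non-targeting control and median/MAD z-scores, plus per-cell luciferase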
Reading the numbers: total luciferase, z-score and total luciferase, % of control: higher = more reporter protein produced
Call rule: 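Active when the median/MAD z-score for overall luciferase is greater than 3; a gene was taken forward for validation with new siRNAs if at least two of its three siRNAs passed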
Calls: active = raised luciferase; inactive = no rise
Here is a random part of about 59,000 reagents tested. Over the whole deposit, about 1,510 (2.6%) are marked active. 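Calls use total luciferase alone and ignore viability, so some active siRNAs may act by altering cell number.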 The numbers tell different reagents against one gene apart. Not all columns of the deposit are shown.

With knock-down of PARVB #1 the results were total luciferase, z-score -2.06; total luciferase, % of control 40.9; inactive.
PARVB #2 scored total luciferase, z-score 0.843; total luciferase, % of control 98.7; inactive.
After knock-down of PARVB #3, the screen gave total luciferase, z-score -0.675; total luciferase, % of control 68.5; inactive.
ELL #1 showed total luciferase, z-score -2.26; total luciferase, % of control 37; inactive.
After knock-down of ELL #2, the screen gave total luciferase, z-score -0.184; total luciferase, % of control 78.2; inactive.
Knock-down of ELL #3 gave: total luciferase, z-score -0.432; total luciferase, % of control 73.3; inactive.
Depletion of SPCS3 #1 came out at: total luciferase, z-score -0.526; total luciferase, % of control 71.4; inactive.
For SPCS3 #2, the entry reads total luciferase, z-score -0.529; total luciferase, % of control 71.4; inactive.
With knock-down of SPCS3 #3, the screen gave total luciferase, z-score -1.17; total luciferase, % of control 58.6; inactive.

Sorted by “total luciferase, z-score” (low to high): some entries from above
ELL #1 — total luciferase, z-score = -2.26; total luciferase, % of control = 37; activity call = inactive
PARVB #3 — total luciferase, z-score = -0.675; total luciferase, % of control = 68.5; activity call = inactive
PARVB #2 — total luciferase, z-score = 0.843; total luciferase, % of control = 98.7; activity call = inactive

Further records:
Depletion of DIPK1B #1 gave: total luciferase, z-score 0.449; total luciferase, % of control 90.8; inactive.
For DIPK1B #2, the entry reads total luciferase, z-score 0.677; total luciferase, % of control 95.3; inactive.
Knock-down of DIPK1B #3 gave: total luciferase, z-score 0.778; total luciferase, % of control 97.4; inactive.
With knock-down of FASTKD1 #1, the screen gave total luciferase, z-score 0.384; total luciferase, % of control 89.5; inactive.
For FASTKD1 #2 the deposit lists total luciferase, z-score -0.0252; total luciferase, % of control 81.4; inactive.
With knock-down of FASTKD1 #3, the record shows total luciferase, z-score 3.64; total luciferase, % of control 154; active.
Silencing of CBY3 #1 gave: total luciferase, z-score 0.0982; total luciferase, % of control 83.8; inactive.
After knock-down of CBY3 #2, the screen gave total luciferase, z-score -0.258; total luciferase, % of control 76.7; inactive.
After knock-down of CBY3 #3 the results were total luciferase, z-score -0.141; total luciferase, % of control 79.1; inactive.
DNAAF8 #1 showed total luciferase, z-score 1.84; total luciferase, % of control 119; inactive.
DNAAF8 #2 scored total luciferase, z-score 0.4; total luciferase, % of control 89.8; inactive.
DNAAF8 #3 gave total luciferase, z-score -0.654; total luciferase, % of control 68.9; inactive.
